Values from PubChem BioAssay AID504804 (Drosophila RNAi Screening Center, 2011)
The screen tested about 19,000 reagents; shown is an unselected part of those with a known target gene and a result. In the full data, 47 (0.25%) got an active call. 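Signals are raw, not normalised; exact z-scores behind calls not deposited; actives needed confirmation, so some wells reaching 2 SD are inactive.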 A plus sign joins genes that one reagent is predicted to hit.

- Screen: 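Knock-downs shielding fly cells from apoptosis caused by DNA damage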 (primary screen)
- Cells: Drosophila Kc cells
- Knock-down reagent: long dsRNA against Drosophila genes, 0.5 µg dsRNA per well
- Duration: 96 h (48 h knock-down, then 48 h drug)
- Treatment: doxorubicin 5 µg/ml for 48 h, added 48 h after dsRNA
- Measurement: 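Viability measured as cellular ATP by luminescence after 48 h knock-down then 48 h doxorubicin at 5 µg/ml; unnormalised plate counts for each replicate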
- Scale: raw ATP luminescence: higher = more viable cells, protection from doxorubicin
- Active means: 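Active when both duplicate wells lie at least 2 SD above the plate mean and protection is confirmed by rescreening and independent dsRNAs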

CG10182 [DRSC14202] | raw ATP luminescence, replicate 1: 69670; raw ATP luminescence, replicate 2: 53330; call: inactive
Mocs2A + Mocs2B [DRSC13697] | raw ATP luminescence, replicate 1: 1.49e5; raw ATP luminescence, replicate 2: 1.47e5; call: inactive
Mocs2A + Mocs2B [DRSC14219] | raw ATP luminescence, replicate 1: 70510; raw ATP luminescence, replicate 2: 64730; call: inactive
l(3)87Df (lethal (3) 87Df) [DRSC16982] | raw ATP luminescence, replicate 1: 81180; raw ATP luminescence, replicate 2: 66420; call: inactive
Pex6 + Hao [DRSC06097] | raw ATP luminescence, replicate 1: 69943; raw ATP luminescence, replicate 2: 67997; call: inactive
Pex6 + Hao [DRSC06704] | raw ATP luminescence, replicate 1: 39407; raw ATP luminescence, replicate 2: 92763; call: inactive
Nhe1 (Na[+]/H[+] hydrogen exchanger 1) [DRSC00762] | raw ATP luminescence, replicate 1: 90283; raw ATP luminescence, replicate 2: 84227; call: inactive
CG30127 (retired record) [DRSC05785] | raw ATP luminescence, replicate 1: 1.11e5; raw ATP luminescence, replicate 2: 81010; call: inactive
CG30127 (retired record) [DRSC05786] | raw ATP luminescence, replicate 1: 1.18e5; raw ATP luminescence, replicate 2: 65517; call: inactive
REPTOR (Repressed by TOR) [DRSC14626] | raw ATP luminescence, replicate 1: 43230; raw ATP luminescence, replicate 2: 26043; call: inactive
CG15651 [DRSC04242] | raw ATP luminescence, replicate 1: 67210; raw ATP luminescence, replicate 2: 62020; call: inactive
CG8012 [DRSC10951] | raw ATP luminescence, replicate 1: 43350; raw ATP luminescence, replicate 2: 68247; call: inactive
Orc5 (Origin recognition complex subunit 5) [DRSC03390] | raw ATP luminescence, replicate 1: 63053; raw ATP luminescence, replicate 2: 66010; call: inactive
CG42246 [DRSC17520] | raw ATP luminescence, replicate 1: 1.89e5; raw ATP luminescence, replicate 2: 1.76e5; call: inactive
B-H2 (BarH2) [DRSC19335] | raw ATP luminescence, replicate 1: 47360; raw ATP luminescence, replicate 2: 39760; call: inactive
CG6847 [DRSC19213] | raw ATP luminescence, replicate 1: 1.92e5; raw ATP luminescence, replicate 2: 2.23e5; call: inactive
CG6847 [DRSC20009] | raw ATP luminescence, replicate 1: 3.65e5; raw ATP luminescence, replicate 2: 3.31e5; call: inactive
jv (javelin) [DRSC08831] | raw ATP luminescence, replicate 1: 1.77e5; raw ATP luminescence, replicate 2: 1.92e5; call: inactive
jv (javelin) [DRSC08832] | raw ATP luminescence, replicate 1: 1.64e5; raw ATP luminescence, replicate 2: 1.91e5; call: inactive
RanBPM (Ran-binding protein M) [DRSC06079] | raw ATP luminescence, replicate 1: 44603; raw ATP luminescence, replicate 2: 42820; call: inactive
VhaAC39-2 (Vacuolar H[+] ATPase AC39 subunit 2) [DRSC15609] | raw ATP luminescence, replicate 1: 77260; raw ATP luminescence, replicate 2: 82730; call: inactive
CG12994 [DRSC19192] | raw ATP luminescence, replicate 1: 2.06e5; raw ATP luminescence, replicate 2: 2.16e5; call: inactive
CG12994 [DRSC19514] | raw ATP luminescence, replicate 1: 2.81e5; raw ATP luminescence, replicate 2: 2.18e5; call: inactive
CG12947 [DRSC14575] | raw ATP luminescence, replicate 1: 62737; raw ATP luminescence, replicate 2: 48213; call: inactive
Nckx30C [DRSC02686] | raw ATP luminescence, replicate 1: 37857; raw ATP luminescence, replicate 2: 54367; call: inactive
Nckx30C [DRSC02687] | raw ATP luminescence, replicate 1: 41847; raw ATP luminescence, replicate 2: 75357; call: inactive
Nckx30C [DRSC02688] | raw ATP luminescence, replicate 1: 45963; raw ATP luminescence, replicate 2: 46473; call: inactive
Nckx30C [DRSC02689] | raw ATP luminescence, replicate 1: 25503; raw ATP luminescence, replicate 2: 49833; call: inactive

4 of these entries, set out differently:
jv (javelin) [DRSC08831]
- raw ATP luminescence, replicate 1: 1.77e5
- raw ATP luminescence, replicate 2: 1.92e5
- call: inactive

jv (javelin) [DRSC08832]
- raw ATP luminescence, replicate 1: 1.64e5
- raw ATP luminescence, replicate 2: 1.91e5
- call: inactive

RanBPM (Ran-binding protein M) [DRSC06079]
- raw ATP luminescence, replicate 1: 44603
- raw ATP luminescence, replicate 2: 42820
- call: inactive

VhaAC39-2 (Vacuolar H[+] ATPase AC39 subunit 2) [DRSC15609]
- raw ATP luminescence, replicate 1: 77260
- raw ATP luminescence, replicate 2: 82730
- call: inactive
